PubChem BioAssay AID652243 | Drosophila RNAi Screening Center | 2013
In all, the deposit lists about 24,000 reagents; shown is a random part of those with a known target gene and a result. In the full data, 246 (1%) are marked active. 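Plates not normalised; calls are printed but the firefly/Renilla ratio behind them is not deposited; fold cut for lowering reported inconsistently.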 Raw values vary from plate to plate and are shown uncorrected. Names joined by + are all predicted targets of the reagent. Not stated in the record: the amount of reagent.

Purpose: 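Knock-downs that decrease or increase androgen receptor reporter signal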 (primary screen)
System: Drosophila S2R+ cells
Knock-down reagent: long dsRNA against Drosophila genes
Timing: 72 h (48 h, then 24 h hormone)
Treatment: synthetic androgen R1881 at 10 nM for 24 h
Read-out: 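Firefly light from an androgen-responsive reporter and Renilla control light per well, raw and unnormalised, for each of two replicates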
Reading the numbers: firefly reporter light: higher = more light from androgen-responsive reporter; Renilla control light: higher = more constitutive control signal (cell number, transfection)
Hit rule: 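Across duplicate plates, a knock-down whose log firefly/Renilla ratio shifted a set fold down or up from the GFP/LacZ control mean was a hit; the downward cut appears as both 1.5 and 3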
Meaning of the calls: active = hit: reporter lowered or raised; inactive = no hit

target	dsRNA	firefly reporter light, replicate 1	firefly reporter light, replicate 2	Renilla control light, replicate 1	Renilla control light, replicate 2	activity call
dbr	DRSC00274	1.40e6	1.23e6	4.08e6	1.76e6	inactive
CIAPIN1	DRSC03559	5.63e5	7.06e5	1.50e6	1.52e6	inactive
CIAPIN1	DRSC24039	3.97e5	3.94e5	3.70e5	4.65e5	inactive
CG40486	DRSC20619	1.05e5	1.13e5	6.63e5	9.25e5	inactive
Pp1alpha-96A	DRSC16795	2.68e5	2.72e5	3.31e6	3.08e6	inactive
Pp1alpha-96A	DRSC23320	9.72e5	8.98e5	2.31e6	1.92e6	inactive
Pp1alpha-96A	DRSC25667	6.99e5	5.30e5	5.63e5	3.46e5	inactive
CG7744	DRSC07036	1.41e6	8.11e5	1.95e6	1.70e6	inactive
GluRIIC	DRSC00642	6.10e5	8.24e5	1.32e6	1.28e6	inactive
IntS2	DRSC20094	1.31e5	2.29e5	1.05e6	1.03e6	inactive
twin	DRSC15259	84274	1.28e5	7.93e5	7.98e5	inactive
twin	DRSC15831	1.82e5	2.32e5	2.94e6	2.93e6	inactive
twin	DRSC21363	5.77e5	6.21e5	2.69e5	1.82e5	inactive
twin	DRSC29620	3.14e5	3.88e5	7.19e5	7.19e5	inactive
lncRNA:bxd	DRSC13176	6.73e5	6.38e5	1.38e6	1.49e6	inactive
lncRNA:bxd	DRSC28062	9.37e5	8.78e5	1.76e6	1.77e6	inactive
lncRNA:bxd	DRSC39127	7.49e5	7.30e5	1.71e6	2.06e6	inactive
CG7369	DRSC23501	5.28e5	7.75e5	8.38e5	9.57e5	inactive
Hrb87F	DRSC16708	34861	17260	2.88e5	1.27e5	inactive
Hrb87F	DRSC29600	3.16e5	3.42e5	1.30e6	1.30e6	inactive
CG14820	DRSC10191	2.56e5	1.72e5	3.28e6	1.95e6	inactive
CG6282	DRSC10616	8.57e5	6.81e5	8.07e5	9.95e5	inactive
CG6282	DRSC29524	2.43e5	2.55e5	7.66e5	7.66e5	inactive
alpha-Est5	DRSC12617	66884	51559	2.31e5	3.51e5	inactive
Ran	DRSC20364	1.42e5	2.32e5	2.15e6	2.27e6	inactive
Ran	DRSC28160	2.02e5	1.09e5	8.36e5	7.12e5	inactive
CG8219	DRSC10971	2.11e5	1.94e5	2.13e6	1.77e6	inactive
CG8219	DRSC24577	9.82e5	1.08e6	9.36e5	9.37e5	inactive
Ste:CG33238 + Ste:CG33241 + Ste:CG33244 + 10 more	DRSC26515	3.53e5	2.13e5	4.46e5	2.44e5	inactive
CG14088	DRSC10092	2.67e5	2.33e5	2.63e6	2.71e6	inactive
CG4951	DRSC15682	76912	56687	5.83e5	3.87e5	inactive
Trim9	DRSC02242	2.60e5	2.44e5	1.71e6	1.50e6	inactive
Trim9	DRSC28679	6.05e5	4.11e5	1.64e6	1.58e6	inactive
CG17440	DRSC18126	2.60e5	2.67e5	2.90e6	3.38e6	inactive
CG13088	DRSC02192	2.39e5	2.05e5	2.06e6	1.93e6	inactive
CG18265	DRSC10310	43058	51397	6.70e5	1.37e6	inactive
dnt	DRSC03522	8.27e5	9.53e5	1.31e6	1.34e6	inactive
dnt	DRSC25886	5.25e5	5.71e5	8.13e5	8.09e5	inactive
dnt	DRSC36749					inactive
Dro	DRSC07406	1.32e5	2.09e5	2.59e6	2.59e6	inactive
Dro	DRSC39147	9.55e5	1.08e6	2.28e6	1.93e6	inactive
wdb	DRSC14163	2.53e5	1.54e5	2.40e6	2.64e6	inactive
wdb	DRSC36780					inactive
wdb	DRSC36781					inactive
CG32106	DRSC09219	2.06e5	1.76e5	4.43e5	3.68e5	inactive
Stoml2	DRSC04326	9.17e5	6.94e5	9.17e5	1.07e6	inactive
Inx7	DRSC18784	2.04e5	3.39e5	3.10e6	2.67e6	inactive
Inx7	DRSC24113	8.01e5	6.66e5	5.72e5	4.47e5	inactive
Inx7	DRSC38985	9.29e5	9.12e5	1.39e6	1.42e6	inactive
CG7329	DRSC03046	2.02e5	2.31e5	1.39e6	1.57e6	inactive
CG7329	DRSC26137	2.70e5	2.64e5	8.04e5	7.91e5	inactive
2SrRNA-Psi:CR40677	DRSC38646	8.16e5	8.73e5	1.74e6	2.10e6	inactive
gzl	DRSC12517	31230	22764	4.52e5	3.47e5	inactive
gzl	DRSC27120	3.37e5	3.38e5	7.94e5	8.04e5	inactive
AnxB10	DRSC20677	94856	55607	8.27e5	8.27e5	inactive
AnxB10	DRSC25182	4.40e5	5.73e5	8.72e5	8.80e5	inactive
Tg	DRSC03047	1.96e5	2.72e5	1.72e6	1.82e6	inactive
Tg	DRSC29048	5.42e5	6.04e5	1.85e6	1.78e6	inactive

Part of the list above, showing only “firefly reporter light, replicate 2”:
twin [DRSC15831] = 2.32e5
twin [DRSC21363] = 6.21e5
twin [DRSC29620] = 3.88e5
lncRNA:bxd [DRSC13176] = 6.38e5
lncRNA:bxd [DRSC28062] = 8.78e5
lncRNA:bxd [DRSC39127] = 7.30e5
